According to patent US20200376030A1 (NANJING IASO BIOTHERAPEUTICS, published 2020):

T1: biotinylated BCMA protein (human, UniProt Q02223 1-54, biotinylated (site not stated))
T1 construct: The construct of the soluble labelled protein is not described
T1 sequence (looked up): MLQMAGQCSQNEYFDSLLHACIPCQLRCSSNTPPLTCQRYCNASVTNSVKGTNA

B1: CAR0041 (other)
chain: YPYDVPDYADIVLTQSPPSLAMSLGKRATISCRASESVTILGSHLIHWYQQKPGQPPTLLIQLASNVQTGVPARFSGSGSRTDFTLTIDPVEEDDVAVYYCLQSRTIPRTFGGGTKLEIKGSTSGSGKPGSGEGSTKGQIQLVQSGPELKKPGETVKISCKASGYTFTDYSINWVKRAPGKGLKWMGWINTETREPAYAYDFRGRFAFSLETSASTAYLQINNLKYEDTATYFCALDYSYAMDYWGQGTSVTVSSFVPVFLPAKPTTTPAPRPPTPAPTIASQPLSLRPEACRPAAGGAVHTRGLDFACDIYIWAPLAGTCGVLLLSLVITLYCNHRNRSKRSRLLHSDYMNMTPRRPGPTRKHYQPYAPPRDFAAYRSRVKFSRSADAPAYQQGQNQLYNELNLGRREEYDVLDKRRGRDPEMGGKPRRKNPQEGLYNELQKDKMAEAYSEIGMKGERRRGKGHDGLYQGLSTATKDTYDALHMQALPPR
notes: The signal peptide is left out; The T2A residues left after cleavage and the GFP are not included; also called CAR molecule encoded by the PXL0041 plasmid
B2: CAR0009 (other)
chain: DIVLTQSPPSLAMSLGKRATISCRASESVTILGSHLIHWYQQKPGQPPTLLIQLASNVQTGVPARFSGSGSRTDFTLTIDPVEEDDVAVYYCLQSRTIPRTFGGGTKLEIKGSTSGSGKPGSGEGSTKGQIQLVQSGPELKKPGETVKISCKASGYTFTDYSINWVKRAPGKGLKWMGWINTETREPAYAYDFRGRFAFSLETSASTAYLQINNLKYEDTATYFCALDYSYAMDYWGQGTSVTVSSFVPVFLPAKPTTTPAPRPPTPAPTIASQPLSLRPEACRPAAGGAVHTRGLDFACDIYIWAPLAGTCGVLLLSLVITLYCNHRNRSKRSRLLHSDYMNMTPRRPGPTRKHYQPYAPPRDFAAYRSRVKFSRSADAPAYQQGQNQLYNELNLGRREEYDVLDKRRGRDPEMGGKPRRKNPQEGLYNELQKDKMAEAYSEIGMKGERRRGKGHDGLYQGLSTATKDTYDALHMQALPPR
notes: also called CAR molecule encoded by the PXL0009 plasmid

Columns and labels:
[1] = molecular target: T1, biotinylated BCMA protein; test: flow cytometry, biotinylated BCMA and PE streptavidin on transiently transfected 293T cells
[2] = molecular target: T1, biotinylated BCMA protein; test: flow cytometry, gradient-diluted biotinylated BCMA and PE streptavidin on transiently transfected 293T cells

Binder	Percentage of CAR marked with 500 ng of BCMA [1]	EC50 [2]
B1	16.1%	0.3 nM
B2	18%	1.59 nM
